Here are results for five molecules from paper doi:10.1101/2022.01.24.477493.

Sequences of proteins named here, by UniProt entry; tags and fusion partners are left off.
UniProt Q9D5T0: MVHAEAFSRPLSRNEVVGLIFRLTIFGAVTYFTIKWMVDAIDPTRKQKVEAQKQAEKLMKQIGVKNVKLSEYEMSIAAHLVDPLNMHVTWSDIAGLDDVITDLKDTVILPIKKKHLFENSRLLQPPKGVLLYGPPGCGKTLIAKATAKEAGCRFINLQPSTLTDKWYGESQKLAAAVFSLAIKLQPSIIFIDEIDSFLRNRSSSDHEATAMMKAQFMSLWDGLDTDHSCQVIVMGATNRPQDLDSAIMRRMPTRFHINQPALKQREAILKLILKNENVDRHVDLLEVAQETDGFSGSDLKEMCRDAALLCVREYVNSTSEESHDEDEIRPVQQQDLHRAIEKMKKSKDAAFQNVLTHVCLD
UniProt O35350: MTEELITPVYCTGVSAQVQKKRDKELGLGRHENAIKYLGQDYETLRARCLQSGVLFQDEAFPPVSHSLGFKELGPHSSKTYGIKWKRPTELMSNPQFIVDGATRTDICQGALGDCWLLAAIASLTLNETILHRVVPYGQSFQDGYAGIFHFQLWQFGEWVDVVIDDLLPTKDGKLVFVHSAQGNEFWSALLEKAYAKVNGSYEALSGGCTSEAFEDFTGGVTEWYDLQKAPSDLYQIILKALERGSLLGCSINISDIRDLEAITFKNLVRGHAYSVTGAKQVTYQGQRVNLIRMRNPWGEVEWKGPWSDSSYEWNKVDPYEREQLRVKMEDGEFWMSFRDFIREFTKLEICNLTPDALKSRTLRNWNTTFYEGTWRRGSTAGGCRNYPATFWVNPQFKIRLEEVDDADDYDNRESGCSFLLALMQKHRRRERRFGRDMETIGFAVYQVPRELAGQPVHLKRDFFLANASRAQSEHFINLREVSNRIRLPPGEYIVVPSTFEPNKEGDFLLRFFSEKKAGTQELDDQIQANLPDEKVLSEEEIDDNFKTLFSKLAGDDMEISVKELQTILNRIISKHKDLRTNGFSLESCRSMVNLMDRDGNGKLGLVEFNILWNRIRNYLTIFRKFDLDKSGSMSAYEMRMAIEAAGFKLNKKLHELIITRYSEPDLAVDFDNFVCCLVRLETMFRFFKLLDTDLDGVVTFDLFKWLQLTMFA
UniProt O88685: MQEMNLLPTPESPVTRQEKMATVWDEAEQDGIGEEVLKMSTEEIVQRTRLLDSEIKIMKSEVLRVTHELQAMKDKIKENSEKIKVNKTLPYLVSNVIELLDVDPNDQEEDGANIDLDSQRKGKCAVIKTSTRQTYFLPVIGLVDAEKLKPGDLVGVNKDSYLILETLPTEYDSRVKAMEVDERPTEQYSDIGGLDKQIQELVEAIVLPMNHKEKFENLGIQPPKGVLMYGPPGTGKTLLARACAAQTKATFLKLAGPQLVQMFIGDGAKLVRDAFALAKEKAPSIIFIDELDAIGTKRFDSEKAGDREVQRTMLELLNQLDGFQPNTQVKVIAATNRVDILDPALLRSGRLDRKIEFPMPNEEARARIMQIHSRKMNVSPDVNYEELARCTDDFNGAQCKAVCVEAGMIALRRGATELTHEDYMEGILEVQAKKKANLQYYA

Results are given in words; binding and its absence hold for the method and conditions named. In cells and extracts the contact can be indirect. Here binding means that the protein was enriched with, or labelled near, the bait; the list need not be complete. For some assays here: A no says only that the protein was not detected with the bait.

The target of test [1] is ATAD1 (mouse (endogenous in mouse muscle)) (UniProt Q9D5T0). In words: SEC + affinity purification with mass spectrometry.
The target in test [2] is calpain-1 (mouse (endogenous in mouse muscle)) (UniProt O35350). In words: affinity purification with mass spectrometry.
The target of test [3] is ATAD1 (mouse (endogenous in mouse muscle)) (UniProt Q9D5T0). In words: affinity purification with mass spectrometry.

As to “PSMC3 (Rpt5) (from UniProt O88685 1-442)”, the binding result in test [1] is “binds”.

For the molecule “p97/VCP (from UniProt Q01853 1-806) (enzyme)”, the binding result in test [1] is “no binding”.

As for “ATAD1 (from UniProt Q9D5T0 1-361) (enzyme)”, the binding entry in test [2] is reported as “binds”.

B1: Phospholipase A-2-activating protein (PLAA) (protein, UniProt P27612 1-794)
chain: MASGASRYRLSCSLPGHELDVRGLVCCLYPPGAFVSVSRDRTTRLWAPDSPNRGFTEMHCMSGHSNFVSCVCIIPSSDIYPHGLIATGGNDHNICIFSLDSPMPLYILKGHKDTVCSLSSGKFGTLLSGSWDTTAKVWLNDKCMMTLQGHTAAVWAVKILPEQGLMLTGSADKTIKLWKAGRCERTFLGHEDCVRGLAILSETEFLSCANDASIRRWQITGECLEVYFGHTNYIYSISVFPNSKDFVTTAEDRSLRIWKHGECAQTIRLPAQSIWCCCVLENGDIVVGASDGIIRVFTESEERTASAEEIKAFERELSQATIDSKTGDLGDINAEQLPGREHLSEPGTREGQTRLIRDGERVEAYQWSVSDGRWIKIGDVVGSSGANQQTSGKVLYEGKEFDYVFSIDVNEGGPSYKLPYNVSDDPWLVAYNFLQKNDLNPMFLDQVAKFIIDNTKGQTLGLGNTSFSDPFTGGGRYVPGTSGPSNTVQTADPFTGAGRYMPGSAGMDTTMTGVDPFTGNSAYRSAASKTVNIYFPKKEALTFDQANPTQILGKLKELNGTAPEEKKLTEDDLVLLEKILSLICNNSSEKPTAQQLQILWKAINWPEDIVFPALDILRLSIKHPNVNENFCNEKGDQFSSHLINLLNPKGKPANQLLALRTFCNCFVSQAGQKLMMSQRESLMSHAIELKSGSNKNIHIALATLTLNYSVCFHKDHNIEGKAQCLSVISTILEVVQDLEATFRLLVALGTLISDDSNAIQLAKSLGVDSQIKKYVSVSEPAKVSECCRLVLHLL
In the case of B1, the binding result in test [3] is on record as “binds”.

B2: UBXN4 (protein, UniProt Q8VCH8 1-506)
chain: MLWFQGAIPAAIASAKRSGAVFVVFVAGDDEQSIQMAASWEDEKVTQASSNNFVAIKIDTKSEACLQFSQIYPVVCVPSSFFIGDSGIPLEVIAGSVSADELVTRIHKVQQMHSSKGEASVTNDNQSESSVSTPSASFEPDVCENPESKNTELCETPATSDIKSDTATGGECTGHDSHSQEPHGCSNQRPAEDLTVRVERLTKKLEERREEKRKEEAQREIKKEIERRKTGKEMLDYKRKQEEELTKRMLEERSREKAEDRAARERIKQQIALDRAERAARFAKTKEAEAAKAAALLTKQAGTEVKRESTARDRSTIARIQFRLPDGSSFTNQFPSDAPLEEARQFAAQTVGNTYGNFSLATMFPRREFTREDYKRRLLDLELAPSASVVLLPAGRPATSIVHSSSGDIWTLLGTVLYPFLAIWRLISNFLFSNPPPAQTSARATSTEPSNSASSSKSEKREPVRKRMLEKRGEDFKKEGKIYRLRTQDDGEDENNTWNGNSTQQM
As for B2, in test [1], the binding result is recorded as “binds”.
